Paper doi:10.1101/640185
Results are given in words; binding and its absence hold for the method and conditions named. Binding seen in cells or lysates may run through a third protein. Some binding calls cover weakened binding; strength is not graded here.

The chains behind the UniProt entries cited, without tags or fusion partners.
UniProt Q9JIS5: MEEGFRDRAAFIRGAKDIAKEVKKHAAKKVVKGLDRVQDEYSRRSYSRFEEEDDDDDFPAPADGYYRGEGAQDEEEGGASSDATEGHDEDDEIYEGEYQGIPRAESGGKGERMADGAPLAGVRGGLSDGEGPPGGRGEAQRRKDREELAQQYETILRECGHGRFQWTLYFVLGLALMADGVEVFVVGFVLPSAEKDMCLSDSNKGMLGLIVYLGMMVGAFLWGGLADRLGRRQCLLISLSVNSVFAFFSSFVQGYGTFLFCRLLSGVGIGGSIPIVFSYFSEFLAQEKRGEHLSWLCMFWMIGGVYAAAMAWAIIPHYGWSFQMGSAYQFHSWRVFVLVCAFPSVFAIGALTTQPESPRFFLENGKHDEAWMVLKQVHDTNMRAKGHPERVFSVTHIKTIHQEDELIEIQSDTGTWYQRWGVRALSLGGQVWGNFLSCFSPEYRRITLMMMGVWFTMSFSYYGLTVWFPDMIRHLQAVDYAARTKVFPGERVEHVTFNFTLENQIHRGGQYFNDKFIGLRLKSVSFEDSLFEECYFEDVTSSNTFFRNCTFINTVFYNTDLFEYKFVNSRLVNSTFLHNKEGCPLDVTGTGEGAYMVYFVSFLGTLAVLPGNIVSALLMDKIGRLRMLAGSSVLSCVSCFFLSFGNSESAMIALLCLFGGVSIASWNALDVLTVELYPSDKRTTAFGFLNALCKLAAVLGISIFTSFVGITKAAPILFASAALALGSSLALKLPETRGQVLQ
UniProt Q8BG39: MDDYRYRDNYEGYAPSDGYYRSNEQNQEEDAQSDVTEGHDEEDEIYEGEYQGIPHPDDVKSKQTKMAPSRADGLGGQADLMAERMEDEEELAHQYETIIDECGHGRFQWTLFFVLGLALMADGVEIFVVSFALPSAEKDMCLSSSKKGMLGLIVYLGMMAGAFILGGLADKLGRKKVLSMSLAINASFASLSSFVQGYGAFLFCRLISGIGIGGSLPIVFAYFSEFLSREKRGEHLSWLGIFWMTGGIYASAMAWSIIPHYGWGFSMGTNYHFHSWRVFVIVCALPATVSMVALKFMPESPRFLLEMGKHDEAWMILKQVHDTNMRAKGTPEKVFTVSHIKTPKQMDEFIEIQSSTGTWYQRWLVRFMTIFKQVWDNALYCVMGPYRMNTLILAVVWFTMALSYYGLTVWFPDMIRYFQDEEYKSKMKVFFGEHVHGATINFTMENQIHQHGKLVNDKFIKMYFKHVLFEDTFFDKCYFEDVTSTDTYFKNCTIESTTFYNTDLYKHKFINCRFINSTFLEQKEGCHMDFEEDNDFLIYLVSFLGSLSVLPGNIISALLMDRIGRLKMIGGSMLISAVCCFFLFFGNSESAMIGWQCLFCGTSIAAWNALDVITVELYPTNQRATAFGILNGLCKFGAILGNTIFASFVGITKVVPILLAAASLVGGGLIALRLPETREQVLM

Target: Synaptic Vesicle protein 2A (mouse (endogenous in mouse brain)) (UniProt Q9JIS5)
Experiment: co-IP

SV2B (from UniProt Q8BG39 1-683)
binding: binds
